According to patent US20110281896A1, “OPTICALLY PURE QUINAZOLINE COMPOUNDS” (Jiangsu Hansoh Pharmaceutical Co. Ltd, priority 2009, published 2011):

Tested on: human lung cancer Calu-3 xenografts
Test: Effect on xenografts in nude mice with lung cancer Calu-3
Type: in vivo, BALB/cA-nude mice
Details: D16, drug group vs. vehicle control; PO QD × 17; 146.5-146.7 mg/kg
Description: Effect of compound 97(±), compound 97, compound 110 and Lapatinib (positive control) on xenografts in nude mice with lung cancer Calu-3 Remark: “±” means the compound is racemic.
The purpose of the experiment is to evaluate and compare the effect of compound 97(±), compound 97, compound 110, Lapatinib on xenografts in nude mice with lung cancer Calu-3.
BALB/cA-nude mice, 6-7 weeks, ♀, purchased from ShangHai Slac laboratory animal Co., Ltd.
Calu-3 cells were injected subcutaneously into nude mice. Animals were divided into groups (d0) randomly after tumors have grown to 150-300 mm^3. Dosage and dosage regimen design can be seen in table 1. Tumors volume was measured 2-3 times per week. Mice were weighed and data were recorded. Calculation formula for tumor volume (V) is as below:
V=½×a×b^2, wherein, a and b represent length and width respectively.

Structure (SMILES)	Relative Value (inal vs. Control) D16
CN(C)[C@@H](CS(C)(=O)=O)c1ccc(-c2ccc3ncnc(Nc4ccc(OCc5cccc(F)c5)c(Cl)c4)c3c2)o1 [Compound 110, (R)—N-(4-(3-fluorobenzyl-oxy)-3-chlorophenyl)-6-(5-(1-(N,N-dimethyl-amino)-2-(methylsulfonyl)ethyl)-2-yl)quinazolin-4-amine]	0.000
CN(C)[C@H](CS(C)(=O)=O)c1ccc(-c2ccc3ncnc(Nc4ccc(OCc5cccc(F)c5)c(Cl)c4)c3c2)o1 [Compound 97, (S)—N-(4-(3-fluorobenzyloxy)-3-chlorophenyl)-6-(5-(1-(N,N-dimethyl-amino)-2-(methylsulfonyl)ethyl)furan-2-yl)quinazolin-4-amine]	0.037
CS(=O)(=O)CCNCc1ccc(-c2ccc3ncnc(Nc4ccc(OCc5cccc(F)c5)c(Cl)c4)c3c2)o1 [Lapatinib, reference compound]	0.027
